The record followed here is patent publication US20090203538A1.

In assay [1] the target is T1, ITGA3 (integrin alpha 3) (Homo sapiens (Human)) (UniProt P26006).
T1 sequence: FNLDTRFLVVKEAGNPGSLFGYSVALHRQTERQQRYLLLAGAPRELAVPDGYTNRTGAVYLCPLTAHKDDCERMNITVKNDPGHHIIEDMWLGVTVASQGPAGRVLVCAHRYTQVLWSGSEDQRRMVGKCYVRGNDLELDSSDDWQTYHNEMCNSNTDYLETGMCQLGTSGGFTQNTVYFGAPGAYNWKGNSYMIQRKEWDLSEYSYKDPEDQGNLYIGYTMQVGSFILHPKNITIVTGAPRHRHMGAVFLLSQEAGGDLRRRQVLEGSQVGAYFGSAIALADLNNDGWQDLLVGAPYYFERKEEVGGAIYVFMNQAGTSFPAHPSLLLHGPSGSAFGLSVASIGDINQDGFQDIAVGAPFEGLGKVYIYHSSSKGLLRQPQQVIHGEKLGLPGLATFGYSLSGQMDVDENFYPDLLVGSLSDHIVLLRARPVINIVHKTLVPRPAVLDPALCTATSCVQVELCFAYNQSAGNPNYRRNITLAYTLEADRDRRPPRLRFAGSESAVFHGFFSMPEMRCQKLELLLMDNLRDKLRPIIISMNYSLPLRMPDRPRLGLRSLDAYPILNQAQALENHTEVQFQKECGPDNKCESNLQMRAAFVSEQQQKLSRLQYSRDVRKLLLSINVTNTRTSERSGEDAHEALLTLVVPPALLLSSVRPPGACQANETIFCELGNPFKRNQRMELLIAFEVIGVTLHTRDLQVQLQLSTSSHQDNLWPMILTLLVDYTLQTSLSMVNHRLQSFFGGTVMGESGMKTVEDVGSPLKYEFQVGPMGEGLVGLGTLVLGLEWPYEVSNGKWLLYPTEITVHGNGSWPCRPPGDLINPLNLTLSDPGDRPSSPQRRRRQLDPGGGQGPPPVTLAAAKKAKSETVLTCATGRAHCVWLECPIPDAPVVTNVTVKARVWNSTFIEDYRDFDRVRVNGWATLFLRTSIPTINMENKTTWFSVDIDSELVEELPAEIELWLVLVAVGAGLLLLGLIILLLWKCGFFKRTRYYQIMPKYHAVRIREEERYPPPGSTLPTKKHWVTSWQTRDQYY
As to the kind of experiment: immunoprecipitation from biotin-labelled cell lysate with pp type antibody, mass spectrometry.

Assay [2] addresses HER1 (Homo sapiens (Human)). Described as above.

Results are given in words; binding and its absence hold for the method and conditions named. In cells and extracts the contact can be indirect. These calls come from enrichment with a bait or labelling near it, and not all partners need be listed.

B1: 015-003 antibody (antibody, V domains shown)
VH: QVQLVQSGAEVKKPGASVKVSCKASGYTFTSYGISWVRQAPGQGLEWMGWISAYNGNTNYAQKLQGRVTMTTDTSTSTAYMELRSLRSDDTAVYYCATAASLKYYYDSSGYYYWGQGTLVTVSR
VL: SSELTQDPAVSVALGQTVRITCQGDSLRSYYASWYQQKPGQAPVLVISGKNNRPSGIPDRFSGSSSGDTASLTITGAQAEDEANYYCNSRDSSGYPSWVFGGGTKLTVLG
Turning to B1, the binding entry in assay [1] is given as “binds”.

B2: 057-091 antibody (antibody, V domains shown)
VH: QVQLVQSGAEVKKTGSSVKVSCKASGGSFSSSAISWVRQAPGHGLEWLGGIIPTFGTPNHAQKFQGRVTITADESTGTAYMELSGLRSEDTAVYYCARAHCGGGRCYDYTDAFHFWGQGTMVTVSR
VL: SYELTQPPSVSVAPGKTARITCGGDNIGNRSVHWYQQKPGQAPVLLIYYDSDRPSGIPKRFSGSNSGNTATLTISRVEAGDEADYYCQVWDSTSDHVVFGGGTKLTVLR
Regarding B2, the binding result in assay [2] was “binds”.
